From paper PMC2702331
These are yes or no findings as the source states them, for the method shown. Binding seen in cells or lysates may run through a third protein. Here binding means that the protein was enriched with, or labelled near, the bait; the list need not be complete.

By UniProt entry, the sequences of proteins in these tests, tags left out.
UniProt P04608: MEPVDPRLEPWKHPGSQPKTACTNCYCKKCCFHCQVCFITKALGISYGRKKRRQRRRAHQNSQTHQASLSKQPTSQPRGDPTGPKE

B1: RHII/Gu, Q9NR30 1-783 (protein)
chain: MPGKLRSDAGLESDTAMKKGETLRKQTEEKEKKEKPKSDKTEEIAEEEETVFPKAKQVKKKAEPSEVDMNSPKSKKAKKKEEPSQNDISPKTKSLRKKKEPIEKKVVSSKTKKVTKNEEPSEEEIDAPKPKKMKKEKEMNGETREKSPKLKNGFPHPEPDCNPSEAASEESNSEIEQEIPVEQKEGAFSNFPISEETIKLLKGRGVTFLFPIQAKTFHHVYSGKDLIAQARTGTGKTFSFAIPLIEKLHGELQDRKRGRAPQVLVLAPTRELANQVSKDFSDITKKLSVACFYGGTPYGGQFERMRNGIDILVGTPGRIKDHIQNGKLDLTKLKHVVLDEVDQMLDMGFADQVEEILSVAYKKDSEDNPQTLLFSATCPHWVFNVAKKYMKSTYEQVDLIGKKTQKTAITVEHLAIKCHWTQRAAVIGDVIRVYSGHQGRTIIFCETKKEAQELSQNSAIKQDAQSLHGDIPQKQREITLKGFRNGSFGVLVATNVAARGLDIPEVDLVIQSSPPKDVESYIHRSGRTGRAGRTGVCICFYQHKEEYQLVQVEQKAGIKFKRIGVPSATEIIKASSKDAIRLLDSVPPTAISHFKQSAEKLIEEKGAVEALAAALAHISGATSVDQRSLINSNVGFVTMILQCSIEMPNISYAWKELKEQLGEEIDSKVKGMVFLKGKLGVCFDVPTASVTEIQEKWHDSRRWQLSVATEQPELEGPREGYGGFRGQREGSRGFRGQRDGNRRFRGQREGSRGPRGQRSGGGNKSNRSQNKGQKRSFSKAFGQ
B2: Nup93 (protein, UniProt Q8N1F7 1-819)
chain: MDTEGFGELLQQAEQLAAETEGISELPHVERNLQEIQQAGERLRSRTLTRTSQETADVKASVLLGSRGLDISHISQRLESLSAATTFEPLEPVKDTDIQGFLKNEKDNALLSAIEESRKRTFGMAEEYHRESMLVEWEQVKQRILHTLLASGEDALDFTQESEPSYISDVGPPGRSSLDNIEMAYARQIYIYNEKIVNGHLQPNLVDLCASVAELDDKSISDMWTMVKQMTDVLLTPATDALKNRSSVEVRMEFVRQALAYLEQSYKNYTLVTVFGNLHQAQLGGVPGTYQLVRSFLNIKLPAPLPGLQDGEVEGHPVWALIYYCMRCGDLLAASQVVNRAQHQLGEFKTWFQEYMNSKDRRLSPATENKLRLHYRRALRNNTDPYKRAVYCIIGRCDVTDNQSEVADKTEDYLWLKLNQVCFDDDGTSSPQDRLTLSQFQKQLLEDYGESHFTVNQQPFLYFQVLFLTAQFEAAVAFLFRMERLRCHAVHVALVLFELKLLLKSSGQSAQLLSHEPGDPPCLRRLNFVRLLMLYTRKFESTDPREALQYFYFLRDEKDSQGENMFLRCVSELVIESREFDMILGKLENDGSRKPGVIDKFTSDTKPIINKVASVAENKGLFEEAAKLYDLAKNADKVLELMNKLLSPVVPQISAPQSNKERLKNMALSIAERYRAQGISANKFVDSTFYLLLDLITFFDEYHSGHIDRAFDIIERLKLVPLNQESVEERVAAFRNFSDEIRHNLSEVLLATMNILFTQFKRLKGTSPSSSSRPQRVIEDRDSQLRSQARTLITFAGMIPYRTSGDTNARLVQMEVLMN
B3: Nup85 (protein, UniProt Q9BW27 1-656)
chain: MEELDGEPTVTLIPGVNSKKNQMYFDWGPGEMLVCETSFNKKEKSEMVPSCPFIYIIRKDVDVYSQILRKLFNESHGIFLGLQRIDEELTGKSRKSQLVRVSKNYRSVIRACMEEMHQVAIAAKDPANGRQFSSQVSILSAMELIWNLCEILFIEVAPAGPLLLHLLDWVRLHVCEVDSLSADVLGSENPSKHDSFWNLVTILVLQGRLDEARQMLSKEADASPASAGICRIMGDLMRTMPILSPGNTQTLTELELKWQHWHEECERYLQDSTFATSPHLESLLKIMLGDEAALLEQKELLSNWYHFLVTRLLYSNPTVKPIDLHYYAQSSLDLFLGGESSPEPLDNILLAAFEFDIHQVIKECSIALSNWWFVAHLTDLLDHCKLLQSHNLYFGSNMREFLLLEYASGLFAHPSLWQLGVDYFDYCPELGRVSLELHIERIPLNTEQKALKVLRICEQRQMTEQVRSICKILAMKAVRNNRLGSALSWSIRAKDAAFATLVSDRFLRDYCERGCFSDLDLIDNLGPAMMLSDRLTFLGKYREFHRMYGEKRFADAASLLLSLMTSRIAPRSFWMTLLTDALPLLEQKQVIFSAEQTYELMRCLEDLTSRRPVHGESDTEQLQDDDIETTKVEMLRLSLARNLARAIIREGSLEGS

What was measured:
[1] = molecular target: GST-Tat (HIV-1 HXB2, 86 amino acids) (HIV-1 HXB2), P04608; experiment: affinity purification with mass spectrometry; GST-Tat (bait) or GST (control) immobilised on glutathione-Sepharose 4 Fast Flow; Jurkat nuclear extract (300 ug, Benzonase-treated), rotating at 4°C overnight; binding buffer 20 mM Tris pH 7.4, 300 mM NaCl, 100 mM NaF, 1 mM DTT, 50 mM EDTA, 1% Triton X100, 10% glycerol; eluate on SDS-PAGE, gel slices by LC-MS/MS; only the target purified; conditions: remark: other sources report otherwise
[2] = molecular target: GST-Tat (HIV-1 HXB2, 86 amino acids) (HIV-1 HXB2) (UniProt P04608); experiment: affinity purification with mass spectrometry; only the target purified

| Binder | binding [1] | binding [2] |
| --- | --- | --- |
| B1 | binds |  |
| B2 |  | binds |
| B3 |  | binds |
